{
  "source": "patent US10793885B2",
  "about": "“Compositions and methods for making noscapine and synthesis intermediates thereof” (priority 2013, dated 2020)",
  "molecular_target": "T1, NOS (Papaver somniferum, UniProt I3PLR3)",
  "T1 construct": "His-tag (pRSETA leader) (N); made in house; host or cells: Escherichia coli Rosetta (DE3) pLysS",
  "T1 sequence (I3PLR3 1-348)": "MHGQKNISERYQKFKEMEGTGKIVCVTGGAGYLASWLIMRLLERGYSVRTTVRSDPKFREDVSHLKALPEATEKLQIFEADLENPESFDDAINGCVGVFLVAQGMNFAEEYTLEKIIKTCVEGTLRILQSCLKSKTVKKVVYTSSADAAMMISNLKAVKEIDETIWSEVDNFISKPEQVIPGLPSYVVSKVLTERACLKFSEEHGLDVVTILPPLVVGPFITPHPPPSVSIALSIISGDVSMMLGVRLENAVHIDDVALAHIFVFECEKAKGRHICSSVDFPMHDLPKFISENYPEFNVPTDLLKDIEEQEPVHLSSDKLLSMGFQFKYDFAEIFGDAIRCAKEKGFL",
  "assay_type": "biochemical, opium poppy (Papaver somniferum)",
  "conditions": "recombinant NOS, product detection by LC-MS/MS",
  "description": "The full-length cDNA sequence of CL1327Contig1 (see: Example 2) was cloned into vector pRSETA in-frame with an N-terminal His-tag and expressed in E. coli as follows. The NOS coding region was amplified from opium poppy stem cDNA using the following primer set: 5′-[…]-3′ (SEQ ID NO: 601) and 5′-[…]-3′ (SEQ ID NO: 602). The NOS cDNA was cloned into the expression vector pRSETA (Invitrogen) at the SacI and KpnI restriction sites in frame with an N-terminal His-tag sequence. The expression construct was transformed into Escherichia coli strain Rosetta (DE3) pLysS (EMD Chemicals, Darmstadt, Germany). Expression of the recombinant gene was induced overnight with 1 mM isopropyl β-D-thiogalactoside (IPTG) at room temperature. Cells were harvested by centrifugation and sonicated in a buffer containing 50 mM sodium phosphate, pH 7.0, 300 mM NaCl, and 10 mM β-mercaptoethanol. […] Protein concentration was determined by the Bradford assay (Bio-Rad, Hercules, Calif.) using bovine serum albumin as the standard.\nThe purified recombinant NOS enzyme (see: Example 4) was assayed using either narcotine hemiacetal as the substrate (in the presence of either NAD^+ or NADP^+ as cofactor) for dehydrogenase activity, or with noscapine as the substrate (in the presence of NADH or NADPH as the cofactor) for reductase activity. LC-MS/MS was used to identify and quantify product formation (FIG. 7). […]",
  "data": [
    {"compound": "CN1CC[C@]23c4c5ccc(O)c4O[C@H]2[C@@H](O)C=C[C@H]3[C@H]1C5", "note": "[Morphine]", "values": [
      {"measurement": "acceptance as substrate / conversion by NOS", "value": "none were accepted by NOS"}
    ]}
  ]
}
